PubChem BioAssay AID1159584, Peter MacCallum Cancer Centre | 2016

Screen: 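Genes whose loss is lethal only together with E-cadherin loss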 (primary screen)
System: human MCF10A breast epithelial cells, parental and CDH1-null
Knock-down reagent: siRNA against human genes
Read-out: 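ATP luminescence (CellTiter-Glo) viability per line relative to mean mock wells over all plates, and the ratio of CDH1-null to parental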
Reading the numbers: CDH1-null / parental viability ratio: higher = CDH1-null cells survive relatively better than parental; CDH1-null viability vs mock: higher = more viable CDH1-null cells; parental viability vs mock: higher = more viable parental cells
Shown is one part, drawn at random, of about 18,000 deposited reagents. The record does not give: the amount of reagent, the time to read-out.

Target gene | CDH1-null / parental viability ratio | CDH1-null viability vs mock (fraction of mock) | parental viability vs mock (fraction of mock)
MYL6 | 1.06 | 1.04 | 0.98
MLIP | 1.02 | 0.65 | 0.64
ZNF785 | 1.18 | 0.97 | 0.82
TCP1 | 1.29 | 1.01 | 0.78
LRRC66 | 1.46 | 1.17 | 0.8
COL19A1 | 0.97 | 0.88 | 0.91
RNF113B | 0.83 | 0.5 | 0.6
GCAT | 0.9 | 0.78 | 0.87
CWF19L2 | 1.25 | 1.16 | 0.93
CDCA7 | 1.05 | 0.92 | 0.88
FTO | 1.07 | 0.92 | 0.86
ARMCX6 | 0.88 | 0.87 | 0.99
DHRS7B | 0.79 | 0.74 | 0.94
HAX1 | 0.88 | 0.56 | 0.64
LCE3E | 0.94 | 0.76 | 0.81
ATP5F1C | 0.97 | 0.76 | 0.78
HEPH | 1.19 | 0.94 | 0.79
SLC22A24 | 0.8 | 0.51 | 0.64
KAT8 | 0.94 | 0.62 | 0.66
R3HCC1L | 1.34 | 0.79 | 0.59
POSTN | 1.17 | 1.02 | 0.87
HS3ST3B1 | 0.74 | 0.78 | 1.06
RPL19P9 | 1.53 | 0.55 | 0.36
MTF1 | 1.05 | 0.68 | 0.65
KIN | 1.45 | 0.81 | 0.56
OR5B12 | 0.89 | 0.62 | 0.7
CRTC2 | 0.93 | 1.04 | 1.12
GARIN2 | 0.85 | 0.72 | 0.85
MTFR1L | 1.21 | 0.75 | 0.62
DSCR9 | 1.17 | 0.69 | 0.59
PAX2 | 0.9 | 0.86 | 0.96
KASH5 | 0.96 | 0.69 | 0.72
ZNF654 | 1.02 | 0.58 | 0.57
PDE6B | 1.18 | 1.03 | 0.87
ZNF74 | 1.04 | 1.12 | 1.08
TSLIG3A | 1.01 | 0.76 | 0.75
GBP4 | 0.93 | 0.81 | 0.87
OR10X1 | 0.89 | 0.7 | 0.79
CABP4 | 1.11 | 0.93 | 0.84
SAMD5 | 1.01 | 0.9 | 0.89
PPIL3 | 1.17 | 1.22 | 1.04
ZNF502 | 1.13 | 0.8 | 0.71
SPHAR (retired record) | 1.19 | 1 | 0.84
GYS1 | 0.9 | 0.8 | 0.89
PMS2P5 | 0.85 | 0.88 | 1.03
TRIM35 | 0.93 | 0.64 | 0.69
POLR3B | 0.89 | 0.75 | 0.84
RFC4 | 1.06 | 0.68 | 0.64
MYO3A | 1 | 0.85 | 0.85
DHDDS | 0.93 | 0.92 | 0.99
MAP7D2 | 0.97 | 0.86 | 0.89
SCML1 | 0.87 | 0.71 | 0.82
NFE4 | 1.08 | 0.52 | 0.48
SLC9C1 | 1.14 | 1.14 | 1
ENTREP3 | 0.87 | 0.82 | 0.94
FCER1A | 0.74 | 0.74 | 1
PIMREG | 1 | 0.9 | 0.9
TAS2R7 | 0.9 | 0.53 | 0.59
TMEM141 | 1 | 0.42 | 0.42
PRIM2 | 0.69 | 0.59 | 0.86
DRD4 | 0.92 | 0.82 | 0.89
ZIC5 | 1.38 | 0.77 | 0.56
BRWD3 | 1.03 | 0.96 | 0.93
OR1L1 | 0.82 | 0.66 | 0.8
CYP46A1 | 0.99 | 0.68 | 0.69
F3 | 1.05 | 0.99 | 0.94
ATXN7L2 | 0.95 | 0.76 | 0.8
TMEM242 | 1.08 | 0.91 | 0.84

8 entries from above, sorted by “CDH1-null / parental viability ratio”, high to low.
Target gene | CDH1-null / parental viability ratio | CDH1-null viability vs mock (fraction of mock) | parental viability vs mock (fraction of mock)
SPHAR (retired record) | 1.19 | 1 | 0.84
PPIL3 | 1.17 | 1.22 | 1.04
ZNF502 | 1.13 | 0.8 | 0.71
SAMD5 | 1.01 | 0.9 | 0.89
TRIM35 | 0.93 | 0.64 | 0.69
GYS1 | 0.9 | 0.8 | 0.89
POLR3B | 0.89 | 0.75 | 0.84
PMS2P5 | 0.85 | 0.88 | 1.03
